{
  "source": "paper PMC10156107",
  "target": "T1, SlNRC1^NB-ARC (NB-ARC domain of tomato NRC1), untagged (tomato (Solanum lycopersicum)) (UniProt A1X877)",
  "T1 sequence": "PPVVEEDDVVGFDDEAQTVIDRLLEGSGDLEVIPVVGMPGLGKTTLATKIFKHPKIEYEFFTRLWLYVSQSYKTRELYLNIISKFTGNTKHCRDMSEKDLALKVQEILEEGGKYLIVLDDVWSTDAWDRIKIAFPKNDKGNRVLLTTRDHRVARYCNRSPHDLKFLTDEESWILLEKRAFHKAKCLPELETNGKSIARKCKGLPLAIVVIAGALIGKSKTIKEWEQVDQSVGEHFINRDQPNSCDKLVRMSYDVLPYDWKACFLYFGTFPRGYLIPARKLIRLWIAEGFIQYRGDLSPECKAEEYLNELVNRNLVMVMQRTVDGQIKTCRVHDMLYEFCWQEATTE",
  "test": "crystal structure; X-ray, 4.5 Å; complex formed from the two purified proteins in a 1:1 molar ratio and gel-filtered; crystals in 0.1 M MES pH 6.5, 10% PEG-8000, 20% ethylene glycol, 18°C; space group P6_1, two copies of each component in the asymmetric unit; both purified",
  "note": "No constants are given. Whether binding was seen depends on the method and setting. Binding calls can cover weak binding; strength is not graded here. Tags and fused reporters may be left off the sequences shown.",
  "data": [
    {"substance": "Recombinant SS15 protein (lacking signal peptide), untagged (Globodera rostochiensis)", "values": [
      {"measurement": "binding", "value": "binds"}
    ]}
  ]
}
